Patent US7063861B2, “Bioavailable composition of natural and synthetic HCA” (Sabinsa Corporation, priority 2000, dated 2006)
For at least one compound, name, drawing or mass did not settle the structure. Some results were stated once for a whole list of compounds, not compound by compound.

Assays:
[1] = test system: azoxymethane (AOM)-induced colonic aberrant crypt foci (ACF); conditions: cited from earlier work
[2] = test system: methicillin-resistant Staphylococcus aureus; conditions: cited from earlier work
[3] = emulsified garcinol; cited from earlier work
[4] = test system: azoxymethane (AOM)-induced formation of aberrant colonic crypts (AC); test: Azoxymethane (AOM)-induced formation of aberrant colonic crypts in CF-1 mice; assay type: in vivo; conditions: dietary administration, versus control diet

Which “O2- and NO generation and expression of iNOS and COX-2 proteins” value ([1]; feeding of garcinol) does the source give for C=C(C)[C@@H](CC=C(C)C)C[C@@]12C[C@@H](CC=C(C)C)C(C)(C)[C@@](CC=C(C)C)(C(=O)C(C(=O)c3ccc(O)c(O)c3)=C1O)C2=O [GAR, garcinol] here?
Its value is “suppressed”.

And the “liver glutathione S-transferase, quinone reductase activities” value ([1]; feeding of garcinol)?
The value was “significantly elevated”.

And the “development of AOM-induced colonic aberrant crypt foci (ACF)” value ([1]; rats, garcinol diet 0.01% and 0.05%, versus control animals)?
The value was “significantly reduced”.

And the minimum inhibitory concentration [2]?
Its minimum inhibitory concentration is 3.1–12.5 micrograms/ml.

What about the “suppression of superoxide anion” value [3] of the same molecule?
The value was “suppressed superoxide anion comparably to DL alpha-tocopherol”.

What about the “aberrant colonic crypt formation” value [4] of the same molecule?
Its value is “significant reduction”.

With CC(C)=CC[C@H]1C[C@@]23C[C@@H](CC=C(C)C)C(C)(C)[C@@](CC=C(C)C)(C(=O)C(C(=O)c4ccc(O)c(O)c4)=C2OC1(C)C)C3=O [isogarcinol, reference compound] as the molecule, how does the minimum inhibitory concentration [2] read?
Its minimum inhibitory concentration is 3.1–12.5 micrograms/ml.
